Results are given in words; binding and its absence hold for the method and conditions named. Some entries that bind do so weakly or less than the wild type. Blank lines part the entries; values can stand above or below the binder they belong to.
Biological target: T1, human FLT-3 as used for epitope mapping by HDX-MS (human) (UniProt P36888)
T1 sequence (looked up): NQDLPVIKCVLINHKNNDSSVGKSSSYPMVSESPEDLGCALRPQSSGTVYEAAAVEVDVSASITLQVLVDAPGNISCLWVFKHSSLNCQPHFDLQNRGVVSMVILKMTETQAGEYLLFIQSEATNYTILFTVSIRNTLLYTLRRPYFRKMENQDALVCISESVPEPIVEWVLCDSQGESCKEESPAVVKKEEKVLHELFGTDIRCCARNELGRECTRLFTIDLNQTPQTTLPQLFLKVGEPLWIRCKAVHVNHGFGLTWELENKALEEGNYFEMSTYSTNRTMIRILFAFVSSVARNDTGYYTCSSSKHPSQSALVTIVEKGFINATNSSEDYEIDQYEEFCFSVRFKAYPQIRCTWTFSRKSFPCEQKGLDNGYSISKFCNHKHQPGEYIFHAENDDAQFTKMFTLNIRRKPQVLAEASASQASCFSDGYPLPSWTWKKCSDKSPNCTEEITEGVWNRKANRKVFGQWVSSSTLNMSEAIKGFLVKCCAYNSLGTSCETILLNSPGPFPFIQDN
Assay: HDX-MS of FLT3 alone and in complex with the antibody

- binding: binds
B1: 1-18BAC1 humanized full-length anti-FLT3 antibody (antibody, V domains shown)
VH: QVTLKESGPALVKPTQTLTLTCTFSGFSLSRSTMGVGWIRQPPGKALEWLAHIKWNDSKYYNPALKSRLTISKDTSKNQVVLTMTNMDPVDTATYYCARIVYYSTYVGYFDVWGQGTLVTVSS
VL: DIQMTQSPSSLSASVGDRVTITCRASQEISGYLSWYQQKPEKAPKSLIYAASTLHSGVPSRFSGSGSGTDFTLTISSLQPEDFATYYCLQYASYPLTFGQGTKLEIK

- binding: binds
B2: 1B11sL3-1 humanized full-length anti-FLT3 antibody (antibody, V domains shown)
VH: QVQLVQSGAEVKKPGSSVKVSCKASGYTFTSYWMHWVRQAPGQGLEWMGEIDPSDSYTNYNQKFKGRVTITADESTSTAYMELSSLRSEDTAVYYCARSAYYSKRDDYWGQGTLVTVSS
VL: EIVLTQSPATLSLSPGERATLSCRASESVDNYGISFMNWYQQKPGQAPRLLIYAASEQGSGIPARFSGSGSGTDFTLTISSLEPEDFAVYYCWQSKEVPWTFGQGTKLEIK

Reference: patent US20240368288A1
